Paper PMC7595121
These are yes or no findings as the source states them, for the method shown. In cells and extracts the contact can be indirect. Some results given as binding are weak or reduced against the parent protein; the word gives no strength.

Protein sequences, listed by entry. Tags and fused reporters are not part of them.
UniProt P84022: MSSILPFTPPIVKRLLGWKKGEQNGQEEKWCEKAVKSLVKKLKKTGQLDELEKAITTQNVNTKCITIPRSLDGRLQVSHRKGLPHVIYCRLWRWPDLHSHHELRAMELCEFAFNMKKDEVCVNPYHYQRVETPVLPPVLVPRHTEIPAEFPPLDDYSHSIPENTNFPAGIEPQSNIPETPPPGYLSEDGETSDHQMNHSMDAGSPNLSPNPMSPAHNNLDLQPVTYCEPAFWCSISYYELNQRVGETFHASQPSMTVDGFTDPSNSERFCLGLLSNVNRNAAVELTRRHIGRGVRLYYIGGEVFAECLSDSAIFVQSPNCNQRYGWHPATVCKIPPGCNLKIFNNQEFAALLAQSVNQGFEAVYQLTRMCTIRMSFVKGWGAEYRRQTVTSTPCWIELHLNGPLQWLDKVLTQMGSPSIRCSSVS
UniProt Q13485: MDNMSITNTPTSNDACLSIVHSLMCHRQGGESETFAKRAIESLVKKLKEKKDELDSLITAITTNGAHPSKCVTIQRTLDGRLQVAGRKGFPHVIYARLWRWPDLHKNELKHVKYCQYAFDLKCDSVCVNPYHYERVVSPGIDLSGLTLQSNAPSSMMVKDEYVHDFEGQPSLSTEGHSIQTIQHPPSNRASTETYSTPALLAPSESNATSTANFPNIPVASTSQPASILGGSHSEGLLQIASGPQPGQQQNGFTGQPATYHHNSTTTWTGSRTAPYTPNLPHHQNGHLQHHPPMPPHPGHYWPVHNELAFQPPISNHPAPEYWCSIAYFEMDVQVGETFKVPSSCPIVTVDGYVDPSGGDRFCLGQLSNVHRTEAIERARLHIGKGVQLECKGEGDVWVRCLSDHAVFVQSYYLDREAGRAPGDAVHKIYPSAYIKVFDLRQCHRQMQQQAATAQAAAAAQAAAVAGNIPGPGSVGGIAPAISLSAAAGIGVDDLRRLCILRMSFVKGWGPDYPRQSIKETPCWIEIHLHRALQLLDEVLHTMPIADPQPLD
UniProt Q15796: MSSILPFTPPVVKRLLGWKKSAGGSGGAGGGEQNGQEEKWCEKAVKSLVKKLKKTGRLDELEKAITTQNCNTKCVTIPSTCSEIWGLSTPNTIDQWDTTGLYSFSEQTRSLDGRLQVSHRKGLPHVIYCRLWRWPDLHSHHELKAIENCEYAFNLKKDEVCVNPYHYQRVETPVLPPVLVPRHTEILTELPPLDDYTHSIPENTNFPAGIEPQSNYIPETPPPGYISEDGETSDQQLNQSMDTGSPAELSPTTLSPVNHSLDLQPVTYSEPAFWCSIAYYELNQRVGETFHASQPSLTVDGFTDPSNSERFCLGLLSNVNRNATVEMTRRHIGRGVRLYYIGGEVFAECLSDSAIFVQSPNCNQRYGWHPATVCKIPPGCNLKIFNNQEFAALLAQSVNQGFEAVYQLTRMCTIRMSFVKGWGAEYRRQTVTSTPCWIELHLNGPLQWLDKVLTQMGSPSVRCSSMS
UniProt Q9BZS1: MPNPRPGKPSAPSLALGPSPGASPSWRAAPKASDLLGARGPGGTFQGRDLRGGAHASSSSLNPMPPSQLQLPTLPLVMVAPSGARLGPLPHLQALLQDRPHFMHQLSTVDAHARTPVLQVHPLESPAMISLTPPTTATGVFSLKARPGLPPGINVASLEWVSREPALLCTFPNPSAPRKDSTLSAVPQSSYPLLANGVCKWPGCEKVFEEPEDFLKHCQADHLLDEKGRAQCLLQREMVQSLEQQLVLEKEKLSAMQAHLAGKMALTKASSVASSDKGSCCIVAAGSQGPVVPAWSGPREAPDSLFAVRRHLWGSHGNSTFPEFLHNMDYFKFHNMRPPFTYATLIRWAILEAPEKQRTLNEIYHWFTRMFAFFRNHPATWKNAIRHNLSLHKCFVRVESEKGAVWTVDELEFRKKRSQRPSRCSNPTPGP

Legend:
[1] = target: Smad3 (UniProt P84022); test: co-IP; PLC/PRF/5 cells transfected or co-transfected for 24 h; nuclear protein extract; ANTI-FLAG M2 Affinity Gel, 4 °C overnight; western blot
[2] = target: Smad4 (UniProt Q13485); test: as above
[3] = target: Smad2 (UniProt Q15796); test: as above
[4] = target: Smad3 (UniProt P84022); test: co-IP; HEK293T cells transfected or co-transfected for 24 h; nuclear protein extract; ANTI-FLAG M2 Affinity Gel, 4 °C overnight; western blot
[5] = target: Smad4 (UniProt Q13485); test: as above
[6] = target: Smad2 (UniProt Q15796); test: as above

binding [1]: binds | binding [2]: binds | binding [3]: binds | binding [4]: binds | binding [5]: binds | binding [6]: binds
Substance: FOXP3 (full length of FOXP3) (from UniProt Q9BZS1 1-431)
